PubChem BioAssay AID1259254 – NCATS – 2017
Assay: 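Finding genes that stop cells copying their DNA twice in one cycle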 (primary screen). Cell system: human HCT116 colorectal cancer cells. Knock-down reagent: single siRNA against human genes. Time to read-out: 3 days. Read-out: 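Imaged Hoechst DNA stain sorts each cell into a cycle phase by DNA amount; per plate, G2 fraction set to 0% for non-targeting and 100% for GMNN siRNA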. Scale: G2 robust z-score and G2 cells, % of GMNN control: higher = more G2 cells, more excess DNA replication. Call rule: 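An siRNA counts as active if its G2 robust z-score lies at least 5 MADs above the screen median; here such calls match roughly 38% of GMNN control or more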.
This is a random part of about 59,000 deposited reagents. About 1,550 of all reagents (2.6%) count as active. 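G2 share is only a proxy for re-replication; each gene was hit by three separate siRNAs, and active genes were retested.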 Reagents against one gene are numbered here. Further read-outs or replicates are left out here. Not stated in the record: the amount of reagent.

What did the screen give for ECHDC3 #1?
G2 robust z-score: -1.12; G2 cells, % of GMNN control: -4.92; activity call: inactive

What did the screen give for ECHDC3 #2?
G2 robust z-score: 1.07; G2 cells, % of GMNN control: 10.5; activity call: inactive

With ECHDC3 #3, what does the deposit list?
G2 robust z-score: 1.89; G2 cells, % of GMNN control: 16.2; activity call: inactive

For PRTG #1, what does the deposit list?
G2 robust z-score: 1.38; G2 cells, % of GMNN control: 12.7; activity call: inactive

With PRTG #2, how do the results read?
G2 robust z-score: -0.316; G2 cells, % of GMNN control: 0.746; activity call: inactive

With PRTG #3, what was measured?
G2 robust z-score: -0.0336; G2 cells, % of GMNN control: 2.73; activity call: inactive

2 neighbouring reagents from above, quoted:
PRTG #2 — G2 robust z-score: -0.316; G2 cells, % of GMNN control: 0.746; activity call: inactive
PRTG #3 — G2 robust z-score: -0.0336; G2 cells, % of GMNN control: 2.73; activity call: inactive

The listing continues:
For ARMC7 #1, what does the deposit list?
G2 robust z-score: -0.933; G2 cells, % of GMNN control: -3.59; activity call: inactive

How did the screen score ARMC7 #2?
G2 robust z-score: 0.441; G2 cells, % of GMNN control: 6.07; activity call: inactive

What did the screen give for ARMC7 #3?
G2 robust z-score: 0.642; G2 cells, % of GMNN control: 7.49; activity call: inactive

For GIPC1 #1, how do the results read?
G2 robust z-score: -1.08; G2 cells, % of GMNN control: -4.66; activity call: inactive

For GIPC1 #2, how do the results read?
G2 robust z-score: -0.899; G2 cells, % of GMNN control: -3.36; activity call: inactive

What did the screen give for GIPC1 #3?
G2 robust z-score: 2.56; G2 cells, % of GMNN control: 21; activity call: inactive
